This passage reports binding results from paper PMC4029619.

Sequences of proteins named here, by UniProt entry; tags and fusion partners are left off. A change or cut given only in a name is not applied to a line headed by its entry. A line that says so, or that is headed by a name, gives the form on record, which may keep a tag or linker.
myosin heavy chain (Zip), endogenous, detected with anti-Zip antibody (Drosophila (endogenous in spermatocytes)) (Q99323, form named): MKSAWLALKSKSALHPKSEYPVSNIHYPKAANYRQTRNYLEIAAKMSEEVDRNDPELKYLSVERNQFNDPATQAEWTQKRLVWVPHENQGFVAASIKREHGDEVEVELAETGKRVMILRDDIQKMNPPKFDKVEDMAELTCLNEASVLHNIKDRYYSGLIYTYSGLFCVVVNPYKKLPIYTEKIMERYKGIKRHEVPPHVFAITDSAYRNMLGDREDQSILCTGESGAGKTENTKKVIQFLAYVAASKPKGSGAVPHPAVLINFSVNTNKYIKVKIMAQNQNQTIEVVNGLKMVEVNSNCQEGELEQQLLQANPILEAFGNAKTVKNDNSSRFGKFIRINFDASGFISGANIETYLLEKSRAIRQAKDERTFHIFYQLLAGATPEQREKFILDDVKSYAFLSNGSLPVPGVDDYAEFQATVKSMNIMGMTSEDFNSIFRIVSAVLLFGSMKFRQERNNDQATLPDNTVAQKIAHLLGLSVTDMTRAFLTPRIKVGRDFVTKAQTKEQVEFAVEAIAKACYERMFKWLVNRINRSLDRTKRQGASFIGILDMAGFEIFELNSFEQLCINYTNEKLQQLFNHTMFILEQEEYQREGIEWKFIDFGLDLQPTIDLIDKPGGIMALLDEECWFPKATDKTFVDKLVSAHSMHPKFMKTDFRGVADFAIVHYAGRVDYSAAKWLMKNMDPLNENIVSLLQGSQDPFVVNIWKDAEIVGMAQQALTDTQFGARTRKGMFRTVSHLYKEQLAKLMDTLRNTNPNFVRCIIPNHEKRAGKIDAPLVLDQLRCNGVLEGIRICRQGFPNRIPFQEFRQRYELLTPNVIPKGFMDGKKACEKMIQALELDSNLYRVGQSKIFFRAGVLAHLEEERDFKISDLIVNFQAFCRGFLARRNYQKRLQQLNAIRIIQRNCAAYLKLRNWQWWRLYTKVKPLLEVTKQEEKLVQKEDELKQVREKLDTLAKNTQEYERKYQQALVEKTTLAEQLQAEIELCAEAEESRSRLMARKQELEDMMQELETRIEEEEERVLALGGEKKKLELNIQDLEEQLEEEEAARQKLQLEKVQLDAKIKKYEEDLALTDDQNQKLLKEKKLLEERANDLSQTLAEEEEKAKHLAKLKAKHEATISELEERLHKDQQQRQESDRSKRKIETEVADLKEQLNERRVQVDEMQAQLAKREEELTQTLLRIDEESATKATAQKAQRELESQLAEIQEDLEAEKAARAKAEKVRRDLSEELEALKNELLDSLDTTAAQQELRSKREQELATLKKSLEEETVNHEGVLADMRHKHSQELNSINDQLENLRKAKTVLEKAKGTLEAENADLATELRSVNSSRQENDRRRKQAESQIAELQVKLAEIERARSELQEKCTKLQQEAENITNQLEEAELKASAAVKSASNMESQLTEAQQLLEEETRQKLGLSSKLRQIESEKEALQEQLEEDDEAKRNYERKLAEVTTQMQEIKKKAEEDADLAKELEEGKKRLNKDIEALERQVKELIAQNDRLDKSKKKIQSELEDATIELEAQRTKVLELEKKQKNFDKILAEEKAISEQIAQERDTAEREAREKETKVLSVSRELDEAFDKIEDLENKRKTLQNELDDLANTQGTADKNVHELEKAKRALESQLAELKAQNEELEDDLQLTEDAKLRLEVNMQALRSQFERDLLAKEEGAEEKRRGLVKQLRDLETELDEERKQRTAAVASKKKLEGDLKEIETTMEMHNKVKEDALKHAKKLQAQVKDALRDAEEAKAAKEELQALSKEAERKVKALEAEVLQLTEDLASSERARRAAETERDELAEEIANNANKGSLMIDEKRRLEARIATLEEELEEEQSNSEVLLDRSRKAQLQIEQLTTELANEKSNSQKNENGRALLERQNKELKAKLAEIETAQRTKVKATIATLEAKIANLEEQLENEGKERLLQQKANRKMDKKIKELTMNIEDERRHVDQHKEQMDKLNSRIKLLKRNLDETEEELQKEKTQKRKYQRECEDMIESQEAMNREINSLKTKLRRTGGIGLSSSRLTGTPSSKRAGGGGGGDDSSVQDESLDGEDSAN
UniProt P08985: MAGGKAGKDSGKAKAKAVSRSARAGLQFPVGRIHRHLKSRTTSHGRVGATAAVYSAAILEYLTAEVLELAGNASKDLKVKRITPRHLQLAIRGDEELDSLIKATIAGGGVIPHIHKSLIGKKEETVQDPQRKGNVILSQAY

For experiment [1], the target named is myosin heavy chain (Zip), endogenous, detected with anti-Zip antibody (Drosophila (endogenous in spermatocytes)) (UniProt Q99323). Kind of experiment: proximity ligation; in situ PLA (Duolink kit) on fixed Drosophila primary spermatocytes, late anaphase to telophase I; one partner detected by its own antibody, the GFP-tagged partner by anti-GFP; signal means within 40 nm.

Experiment [2] shares this target. The experiment in a line: proximity ligation; in situ PLA, signals in ring canals of fixed spermatocytes; data not shown.
Experiment [3] deals with T1, anillin (endogenous, detected with anti-anillin antibody) (Drosophila (endogenous in spermatocytes)) (UniProt Q9V4P1).
T1 sequence: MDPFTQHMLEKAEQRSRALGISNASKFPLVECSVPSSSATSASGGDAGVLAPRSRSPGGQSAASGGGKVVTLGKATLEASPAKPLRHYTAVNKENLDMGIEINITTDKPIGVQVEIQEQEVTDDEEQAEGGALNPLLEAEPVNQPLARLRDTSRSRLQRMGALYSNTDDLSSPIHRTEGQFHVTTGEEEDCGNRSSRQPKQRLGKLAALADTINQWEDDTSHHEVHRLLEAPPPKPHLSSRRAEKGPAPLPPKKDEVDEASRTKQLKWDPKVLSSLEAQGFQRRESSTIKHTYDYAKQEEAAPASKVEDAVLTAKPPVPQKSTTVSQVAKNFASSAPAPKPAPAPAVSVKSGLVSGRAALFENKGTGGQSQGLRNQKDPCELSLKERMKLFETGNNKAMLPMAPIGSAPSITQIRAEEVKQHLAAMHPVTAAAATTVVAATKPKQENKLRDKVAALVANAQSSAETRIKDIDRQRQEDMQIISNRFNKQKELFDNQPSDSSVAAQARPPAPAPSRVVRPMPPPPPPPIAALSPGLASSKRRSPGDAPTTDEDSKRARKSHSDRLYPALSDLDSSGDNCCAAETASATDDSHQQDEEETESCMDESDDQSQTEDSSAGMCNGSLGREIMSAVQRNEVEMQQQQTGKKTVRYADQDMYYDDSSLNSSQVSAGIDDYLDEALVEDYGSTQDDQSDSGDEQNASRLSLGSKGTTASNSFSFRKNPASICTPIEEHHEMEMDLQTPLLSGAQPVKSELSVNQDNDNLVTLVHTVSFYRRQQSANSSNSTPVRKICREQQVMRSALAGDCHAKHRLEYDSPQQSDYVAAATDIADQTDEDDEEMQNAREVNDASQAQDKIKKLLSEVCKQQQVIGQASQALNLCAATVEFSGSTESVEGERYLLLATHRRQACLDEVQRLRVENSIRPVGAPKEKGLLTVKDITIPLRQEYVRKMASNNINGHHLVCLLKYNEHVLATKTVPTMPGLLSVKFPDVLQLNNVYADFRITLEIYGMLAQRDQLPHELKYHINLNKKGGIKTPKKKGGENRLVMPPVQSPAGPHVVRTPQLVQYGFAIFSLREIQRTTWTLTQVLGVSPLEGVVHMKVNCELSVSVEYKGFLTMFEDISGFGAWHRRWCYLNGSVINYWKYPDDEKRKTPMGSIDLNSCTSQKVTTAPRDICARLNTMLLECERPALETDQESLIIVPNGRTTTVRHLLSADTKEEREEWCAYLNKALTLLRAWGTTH
Kind of experiment: proximity ligation; in situ PLA (Duolink kit) on fixed Drosophila primary spermatocytes, late anaphase to telophase I; one partner detected by its own antibody, the GFP-tagged partner by anti-GFP; signal means within 40 nm.

The target of experiment [4] is T2, GFP-Sqh/myosin light-chain (MLC) (Drosophila) (UniProt P40423).
T2 sequence: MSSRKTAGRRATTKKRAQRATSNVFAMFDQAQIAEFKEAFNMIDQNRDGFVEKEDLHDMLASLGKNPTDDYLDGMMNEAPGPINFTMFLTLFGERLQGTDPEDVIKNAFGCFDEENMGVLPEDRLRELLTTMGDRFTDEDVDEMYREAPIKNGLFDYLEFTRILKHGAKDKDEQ
Described as above.

No constants are given. Whether binding was seen depends on the method and setting. In cells and extracts the contact can be indirect. Some entries that bind do so weakly or less than the wild type. For some of these results: Where a sequence is shown, tags or fusion partners need not be part of it.

Consider “GFP-Histone 2Av (from UniProt P08985 1-141)”, for which the binding entry in experiment [1] is “no binding”.

B1: GFP-Orbit (protein, UniProt Q9NBD7 1-1491)
chain: MAYRKPSDLDGFIQQMPKADMRVKVQLAEDLVTFLSDDTNSIVCTDMGFLIDGLMPWLTGSHFKIAQKSLEAFSELIKRLGSDFNAYTATVLPHVIDRLGDSRDTVREKAQLLLRDLMEHRVLPPQALIDKLATSCFKHKNAKVREEFLQTIVNALHEYGTQQLSVRVYIPPVCALLGDPTVNVREAAIQTLVEIYKHVGDRLRPDLRRMDDVPASKLAMLEQKFDQVKQEGLLLPSALKNTNGNGVGLDEADNIGLRERPTRMIKRPLHSAVSSSLRPKPNVNDVTGDAGAVTMESFESSFEVVPQLNIFHAKDMDDIYKQVLVIISDKNADWEKRVDALKKIRALLILSYHTQPQFVAVQLKELSLSFVDILKEELRSQVIREACITIAYMSKTLRNKLDAFCWSILEHLINLIQNSAKVIASASTIALKYIIKYTHAPKLLKIYTDTLNQSKSKDIRSTLCELMVLLFEEWQTKALERNATVLRDTLKKSIGDADCDARRHSRYAYWAFRRHFPELADQIYGTLDIAAQRALEREREGGGGGGTGTGTGTAPETRRTVSRIGRTPGTLQKPTPSMRSISAVDTAAAQRAKVRAQYTLYSRQRKPLGPNNSNQASMTGAAASGSLPRPRLNSNSGGTPATTPGSVTPRPRGRAGVSQSQPGSRSTSPSTKLRDQYGGIGNYYRGATGAIPKKASGIPRSTASSRETSPTRSGGGLMKRSMYSTGAGSRRTPERNNPVRPSAAARLLAQSREAEHTLGVGDDGQPDYVSGDYMRSGGMRMGRKLMGRDESDDIDSEASSVCSERSFDSSYTRGNKSNYSLSGSHTRLDWSTQRAPFDDIETIIQFCASTHWSERKDGLISLTQYLADGKELTQQQLKCVLDMFRKMFMDTHTKVYSLFLDTVTELILVHANELHEWLFILLTRLFNKLGTDLLNSMHSKIWKTLQVVHEYFPTQLQLKELFRIISDSTQTPTTKTRIAILRFLTDLANTYCKSSDFPSDQSQACERTVLKLAQLAADQKSMELRSQARSCLVALYNLNTPQMTLLLADLPKVYQDSARSCIHSHMRRQSQSCNSGANSPSSSPLSSSSPKPLQSPSVGPFASLQSHHHQLSISSTSPRSRQSSVEQELLFSSELDIQHNIQKTSEEIRHCFGGQYQTALAPNGFNGHLQYHDQGQQDSCASLSSNSKTQSSANTTQSNTPESATMRLDNLERERTTQNAKSPTDDAKVITVSINMAENGELILASNLMESEVVRVALTLTKDQPVELLQTSLTNLGICIKGGNCELPNKHFRSIMRMLLNILEAEHTDVVIAGLHVLSKIMRSNKMRHNWMHFLELILLKIIQCYQHSKEALRDIDSMIPRIAPSLPLDLSINIVNPVIATGEFPTNLCAIKILLEVTEHHGSEITDAHLDIVFPNLARSADDTQSMVRKAAVFCIVKLYFVLGEEKVKPKLSVLNPSKVRLLNVYIEKQRNCISGGGSSTKNSSAASSS
As to B1, the binding entry in experiment [2] is given as “binds”; in experiment [3], “no binding”.

B2: Orbit, Drosophila ortholog of the MT plus-end tracking protein CLASP (endogenous, detected with anti-Orbit antibody) (protein, UniProt Q9NBD7 1-1491)
chain: B1 chain
Take B2: the binding result in experiment [4] is “binds”.
